From patent US20230313199A1 (published 2023)

Target: T1, HA-tagged murine MFSD7C (mouse, UniProt Q91X85 1-551)
T1 construct: Expressed by transfection in 293FT / HEK 293T cells; also called HA-MFSD7C; pCMV6-AN-3HA-MFSD7C; not shown: N-terminal HA tag from vector pCMV6-AN-3HA
T1 sequence (looked up): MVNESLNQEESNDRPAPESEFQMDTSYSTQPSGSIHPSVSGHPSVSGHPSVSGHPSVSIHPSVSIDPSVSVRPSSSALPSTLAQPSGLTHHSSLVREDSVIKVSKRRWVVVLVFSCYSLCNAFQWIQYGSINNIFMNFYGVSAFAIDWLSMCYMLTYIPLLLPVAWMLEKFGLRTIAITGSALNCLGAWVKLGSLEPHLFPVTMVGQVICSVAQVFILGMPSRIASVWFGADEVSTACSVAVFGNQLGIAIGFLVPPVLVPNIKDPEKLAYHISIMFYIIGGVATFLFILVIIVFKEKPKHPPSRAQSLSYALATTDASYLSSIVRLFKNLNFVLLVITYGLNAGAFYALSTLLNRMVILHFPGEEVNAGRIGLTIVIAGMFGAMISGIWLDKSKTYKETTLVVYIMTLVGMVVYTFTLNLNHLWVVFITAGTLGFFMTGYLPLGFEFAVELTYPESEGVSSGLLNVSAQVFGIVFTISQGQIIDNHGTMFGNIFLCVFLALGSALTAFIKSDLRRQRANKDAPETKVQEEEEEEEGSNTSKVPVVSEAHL
Test: co-IP and Western blot, co-transfected 293FT cells, without heme (less or very little with 10 or 40 µM heme)
Description: Co-transfection and immunoprecipitation. For co-IP, HA-tagged MFSD7C was co-transfected with FLAG-tagged HMOX1 (Origene Catalog No. MR203944), CYC1, COX4I1, NDUFA4, ATP5h, ATP5c1 into 293FT cells using TransIT®-LT1 Transfection Reagent (Mirus). Thirty-six hours after transfection, the cells were lysed using cold Lysis Buffer containing 20 mM Tris-HCl (pH 7.4), 150 mM NaCl, 0.1% NP-40, 10% glycerol, proteinase inhibitor (Sigma Catalog No. 4693132001), and phosphatase inhibitors (Sigma Catalog No. 4906845001). The clear supernatants from the lysate were incubated with M2-magnetic beads conjugated with anti-FLAG antibody (Sigma Catalog No. M8823) for 2 hours at 4° C. Then the beads were washed twice and eluted by the 3× FLAG peptides (Sigma Catalog No. F4799).
To determine the effect of heme on MFSD7C interactions with ETC components, HMOX1 or SERCA2b, 293FT cells were transiently transfected with HA-tagged murine MFSD7C and FLAG-tagged murine CYC1, NDUFA4, COX4i1, ATP5h, ATP5c1, HMOX1 or SERCA2b. 35 hrs later, co-transfected cells were incubated with DMSO (vehicle) or 10 μM or 40 μM of heme for one hour before lysis. Cell lysates were precipitated with anti-HA antibody, eluted with HA peptide, further precipitated with anti-FLAG antibody, eluted with FLAG peptide, and then subjected to Western blotting with anti-HA and anti-FLAG antibodies. […]

B1: FLAG-tagged murine COX4I1 (other, mouse, UniProt P19783 23-169, looked up)
chain: AHGSVVKSEDYAFPTYADRRDYPLPDVAHVTMLSASQKALKEKEKADWSSLSRDEKVQLYRIQFNESFAEMNRGTNEWKTVVGMAMFFIGFTALVLIWEKSYVYGPIPHTFDRDWVAMQTKRMLDMKANPIQGFSAKWDYDKNEWKK
notes: Complex IV component; expressed by transfection; also called pCMV6-AC-DDK-Cox4i1; not shown: C-terminal FLAG (DDK) tag
binding result: binds
